# According to the supplement of paper PMC8728848:
# The list shows a part of the results.
# B1: pilr alpha (protein)
# chain: MLYGVTQPKHLSASMGGSVEIPFSFYYPWELATAPDVRISWRRGHFHRQSFYSTRPPSIHKDYVNRLFLNWTEGQKSGFLRISNLQKQDQSVYFCRVELDTRSSGRQQWQSIEGTKLSIT
# How the values were obtained:
# Assay in all cases: glycan array binding signal (z-score within array); higher = stronger binding
# Conditions in all cases: glycan notation: IUPAC condensed, linker removed
# Fuc(a1-3)GlcNAc = molecular target: Fuc(a1-3)GlcNAc
# In short: (§1)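 Negative Z-scores can be read as non-binding. The Z-score is calculated within each array and then averaged across arrays of one protein sequence at different concentrations or buffers and across linkers. Arrays, 3228 in all, were curated from the Consortium for Functional Glycomics database and kept only where the protein sequence was available.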
# [1] = molecular target: Fuc(a1-3)[Gal(b1-4)]Glc6S
# In short: as §1
# [2] = molecular target: Fuc(a1-3)[Gal(b1-4)]GlcNAc
# In short: as §1
# [3] = molecular target: Fuc(a1-3)[Gal(b1-4)]GlcNAc(b1-2)Man
# In short: as §1
# [4] = molecular target: Fuc(a1-3)[Gal(b1-4)]GlcNAc(b1-2)Man(a1-3)[Fuc(a1-3)[Gal(b1-4)]GlcNAc(b1-2)Man(a1-6)]Man(b1-4)GlcNAc(b1-4)GlcNAc
# In short: as §1
# [5] = molecular target: Fuc(a1-3)[Gal(b1-4)]GlcNAc(b1-2)Man(a1-3)[Fuc(a1-3)[Gal(b1-4)]GlcNAc(b1-2)Man(a1-6)]Man(b1-4)GlcNAc(b1-4)[Fuc(a1-6)]GlcNAc
# In short: as §1
# [6] = molecular target: Fuc(a1-3)[Gal(b1-4)]GlcNAc(b1-3)Gal(b1-3)[Fuc(a1-4)]GlcNAc
# In short: as §1
# [7] = molecular target: Fuc(a1-3)[Gal(b1-4)]GlcNAc(b1-3)Gal(b1-4)[Fuc(a1-3)]GlcNAc
# In short: as §1
# [8] = molecular target: Fuc(a1-3)[Gal(b1-4)]GlcNAc(b1-3)Gal(b1-4)[Fuc(a1-3)]GlcNAc(b1-3)Gal(b1-4)[Fuc(a1-3)]GlcNAc
# In short: as §1
# [9] = molecular target: Fuc(a1-3)[Gal(b1-4)]GlcNAc(b1-3)GalNAc
# In short: as §1
# [10] = molecular target: Fuc(a1-3)[Gal(b1-4)]GlcNAc(b1-6)GalNAc
# In short: as §1
# [11] = molecular target: Fuc(a1-3)[Gal(b1-4)]GlcNAc(b1-6)[Gal(b1-3)GlcNAc(b1-3)]Gal(b1-4)Glc
# In short: as §1
# [12] = molecular target: Fuc(a1-3)[Gal(b1-4)]GlcNAc6S
# In short: as §1
# [13] = molecular target: Fuc(a1-3)[Gal3S(b1-4)]Glc
# In short: as §1
# [14] = molecular target: Fuc(a1-3)[Gal3S(b1-4)]GlcNAc
# In short: as §1
# [15] = molecular target: Fuc(a1-3)[Gal3S(b1-4)]GlcNAc6S
# In short: as §1
# [16] = molecular target: Fuc(a1-3)[GalNAc(b1-4)]GlcNAc
# In short: as §1
# [17] = molecular target: Fuc(a1-3)[GalNAc(b1-4)]GlcNAc6S
# In short: as §1
# Fuc(a1-4)GlcNAc = molecular target: Fuc(a1-4)GlcNAc
# In short: as §1
# Fuc(b1-3)GlcNAc = molecular target: Fuc(b1-3)GlcNAc
# In short: as §1
# Gal(a1-2)Gal = molecular target: Gal(a1-2)Gal
# In short: as §1
# Gal(a1-3)Gal = molecular target: Gal(a1-3)Gal
# In short: as §1
# Gal(a1-3)Gal(b1-3)GlcNAc = molecular target: Gal(a1-3)Gal(b1-3)GlcNAc
# In short: as §1
# [18] = molecular target: Gal(a1-3)Gal(b1-3)GlcNAc(b1-2)Man
# In short: as §1
# [19] = molecular target: Gal(a1-3)Gal(b1-3)GlcNAc(b1-2)Man(a1-3)[Gal(a1-3)Gal(b1-3)GlcNAc(b1-2)Man(a1-6)]Man(b1-4)GlcNAc(b1-4)GlcNAc
# In short: as §1
# [20] = molecular target: Gal(a1-3)Gal(b1-3)GlcNAc(b1-3)GalNAc
# In short: as §1
# [21] = molecular target: Gal(a1-3)Gal(b1-3)GlcNAc(b1-6)GalNAc
# In short: as §1
# [22] = molecular target: Gal(a1-3)Gal(b1-3)[Fuc(a1-4)]GlcNAc(b1-2)Man(a1-3)[Gal(a1-3)Gal(b1-3)[Fuc(a1-4)]GlcNAc(b1-2)Man(a1-6)]Man(b1-4)GlcNAc(b1-4)GlcNAc
# In short: as §1
# Gal(a1-3)Gal(b1-4)Glc = molecular target: Gal(a1-3)Gal(b1-4)Glc
# In short: as §1
# Gal(a1-3)Gal(b1-4)GlcNAc = molecular target: Gal(a1-3)Gal(b1-4)GlcNAc
# In short: as §1
# [23] = molecular target: Gal(a1-3)Gal(b1-4)GlcNAc(b1-2)Man
# In short: as §1
# [24] = molecular target: Gal(a1-3)Gal(b1-4)GlcNAc(b1-2)Man(a1-3)[Gal(a1-3)Gal(b1-4)GlcNAc(b1-2)Man(a1-6)]Man(b1-4)GlcNAc(b1-4)GlcNAc
# In short: as §1
# [25] = molecular target: Gal(a1-3)Gal(b1-4)GlcNAc(b1-3)GalNAc
# In short: as §1
# [26] = molecular target: Gal(a1-3)Gal(b1-4)GlcNAc(b1-6)GalNAc
# In short: as §1
# [27] = molecular target: Gal(a1-3)Gal(b1-4)[Fuc(a1-3)]GlcNAc
# In short: as §1
# [28] = molecular target: Gal(a1-3)Gal(b1-4)[Fuc(a1-3)]GlcNAc(b1-2)Man(a1-3)[Gal(a1-3)Gal(b1-4)[Fuc(a1-3)]GlcNAc(b1-2)Man(a1-6)]Man(b1-4)GlcNAc(b1-4)GlcNAc
# In short: as §1
# Gal(a1-3)GalNAc = molecular target: Gal(a1-3)GalNAc
# In short: as §1
# [29] = molecular target: Gal(a1-3)[Gal(a1-4)]Gal(b1-4)GlcNAc
# In short: as §1
# [30] = molecular target: Gal(a1-4)Gal(b1-3)GlcNAc(b1-2)Man(a1-3)[Gal(a1-4)Gal(b1-3)GlcNAc(b1-2)Man(a1-6)]Man(b1-4)GlcNAc(b1-4)GlcNAc
# In short: as §1
# Gal(a1-4)Gal(b1-4)Glc = molecular target: Gal(a1-4)Gal(b1-4)Glc
# In short: as §1
# Gal(a1-4)Gal(b1-4)GlcNAc = molecular target: Gal(a1-4)Gal(b1-4)GlcNAc
# In short: as §1
# [31] = molecular target: Gal(a1-4)Gal(b1-4)GlcNAc(b1-2)Man(a1-3)[Gal(a1-4)Gal(b1-4)GlcNAc(b1-2)Man(a1-6)]Man(b1-4)GlcNAc(b1-4)GlcNAc
# In short: as §1
# [32] = molecular target: Gal(a1-4)Gal(b1-4)GlcNAc(b1-3)Gal(b1-4)Glc
# In short: as §1
# Gal(a1-4)GlcNAc = molecular target: Gal(a1-4)GlcNAc
# In short: as §1
# Gal(a1-6)Glc = molecular target: Gal(a1-6)Glc
# In short: as §1
binder,measurement,setting,value
B1,glycan array binding signal (z-score),Fuc(a1-3)GlcNAc,-1.01
same,glycan array binding signal (z-score),[1],0.954
same,glycan array binding signal (z-score),[2],-0.294
same,glycan array binding signal (z-score),[3],-0.631
same,glycan array binding signal (z-score),[4],-1.03
same,glycan array binding signal (z-score),[5],0.696
same,glycan array binding signal (z-score),[6],-0.223
same,glycan array binding signal (z-score),[7],-0.65
same,glycan array binding signal (z-score),[8],-0.258
same,glycan array binding signal (z-score),[9],0.595
same,glycan array binding signal (z-score),[10],-0.089
same,glycan array binding signal (z-score),[11],-0.127
same,glycan array binding signal (z-score),[12],1.31
same,glycan array binding signal (z-score),[13],-0.433
same,glycan array binding signal (z-score),[14],-0.584
same,glycan array binding signal (z-score),[15],-0.406
same,glycan array binding signal (z-score),[16],-0.247
same,glycan array binding signal (z-score),[17],-1.02
same,glycan array binding signal (z-score),Fuc(a1-4)GlcNAc,-0.406
same,glycan array binding signal (z-score),Fuc(b1-3)GlcNAc,-0.131
same,glycan array binding signal (z-score),Gal(a1-2)Gal,-0.066
same,glycan array binding signal (z-score),Gal(a1-3)Gal,0.272
same,glycan array binding signal (z-score),Gal(a1-3)Gal(b1-3)GlcNAc,0.373
same,glycan array binding signal (z-score),[18],-0.645
same,glycan array binding signal (z-score),[19],-0.319
same,glycan array binding signal (z-score),[20],-0.42
same,glycan array binding signal (z-score),[21],-0.511
same,glycan array binding signal (z-score),[22],-0.615
same,glycan array binding signal (z-score),Gal(a1-3)Gal(b1-4)Glc,-0.172
same,glycan array binding signal (z-score),Gal(a1-3)Gal(b1-4)GlcNAc,-0.25
same,glycan array binding signal (z-score),[23],-0.207
same,glycan array binding signal (z-score),[24],0.755
same,glycan array binding signal (z-score),[25],-0.786
same,glycan array binding signal (z-score),[26],0.726
same,glycan array binding signal (z-score),[27],-0.631
same,glycan array binding signal (z-score),[28],-0.503
same,glycan array binding signal (z-score),Gal(a1-3)GalNAc,2.27
same,glycan array binding signal (z-score),[29],7.86
same,glycan array binding signal (z-score),[30],-1.03
same,glycan array binding signal (z-score),Gal(a1-4)Gal(b1-4)Glc,1.77
same,glycan array binding signal (z-score),Gal(a1-4)Gal(b1-4)GlcNAc,0.354
same,glycan array binding signal (z-score),[31],0.423
same,glycan array binding signal (z-score),[32],-0.604
same,glycan array binding signal (z-score),Gal(a1-4)GlcNAc,-0.523
same,glycan array binding signal (z-score),Gal(a1-6)Glc,0.018
